The values that follow come from article PMC11131071.

The target of experiment [1] is T1, SLC1A5 (human (endogenous in MCF-7/MX, H460/MX and HEK293)) (UniProt Q15758).
T1 sequence: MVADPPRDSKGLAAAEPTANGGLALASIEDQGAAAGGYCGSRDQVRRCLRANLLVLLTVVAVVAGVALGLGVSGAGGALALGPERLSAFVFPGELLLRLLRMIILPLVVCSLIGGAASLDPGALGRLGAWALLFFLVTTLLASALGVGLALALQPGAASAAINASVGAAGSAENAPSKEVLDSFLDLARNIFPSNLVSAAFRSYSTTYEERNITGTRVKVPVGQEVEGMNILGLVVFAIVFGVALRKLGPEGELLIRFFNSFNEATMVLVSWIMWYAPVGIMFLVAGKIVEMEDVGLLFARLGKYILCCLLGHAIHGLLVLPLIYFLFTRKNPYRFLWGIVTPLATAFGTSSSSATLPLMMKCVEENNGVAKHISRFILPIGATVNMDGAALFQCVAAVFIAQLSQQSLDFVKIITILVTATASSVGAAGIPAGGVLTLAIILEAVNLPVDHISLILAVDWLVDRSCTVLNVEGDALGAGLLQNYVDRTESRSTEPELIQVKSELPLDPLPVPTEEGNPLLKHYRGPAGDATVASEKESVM
The experiment in a line: co-IP; lysates of H460/MX cells compared with H460 (Fig. S1B); Western blot. Background: In western blotting, separated proteins are transferred to a membrane and probed.

The target of experiment [2] is T1, SLC1A5 (human (endogenous in MCF-7/MX, H460/MX and HEK293)). The experiment can be described thus: co-IP; MCF-7/MX (and MCF-7) lysate, 1 mg protein, lysis buffer with 1% Triton X-100, 0.5% deoxycholate, 0.1% SDS, 150 mM NaCl; anti-ABCG2 MXP-21 or anti-SLC1A5 overnight at 4 °C, protein G/A Sepharose; Western blot.
Experiment [3] has the same target. The experiment in a line: co-IP; lysates of HEK293 cells stably transfected with an ABCG2 expression vector compared with HEK293 (Fig. S1A); Western blot.
Experiment [4] addresses T2, ABCG2 (human (endogenous in MCF-7/MX and H460/MX)) (UniProt Q9UNQ0).
T2 sequence: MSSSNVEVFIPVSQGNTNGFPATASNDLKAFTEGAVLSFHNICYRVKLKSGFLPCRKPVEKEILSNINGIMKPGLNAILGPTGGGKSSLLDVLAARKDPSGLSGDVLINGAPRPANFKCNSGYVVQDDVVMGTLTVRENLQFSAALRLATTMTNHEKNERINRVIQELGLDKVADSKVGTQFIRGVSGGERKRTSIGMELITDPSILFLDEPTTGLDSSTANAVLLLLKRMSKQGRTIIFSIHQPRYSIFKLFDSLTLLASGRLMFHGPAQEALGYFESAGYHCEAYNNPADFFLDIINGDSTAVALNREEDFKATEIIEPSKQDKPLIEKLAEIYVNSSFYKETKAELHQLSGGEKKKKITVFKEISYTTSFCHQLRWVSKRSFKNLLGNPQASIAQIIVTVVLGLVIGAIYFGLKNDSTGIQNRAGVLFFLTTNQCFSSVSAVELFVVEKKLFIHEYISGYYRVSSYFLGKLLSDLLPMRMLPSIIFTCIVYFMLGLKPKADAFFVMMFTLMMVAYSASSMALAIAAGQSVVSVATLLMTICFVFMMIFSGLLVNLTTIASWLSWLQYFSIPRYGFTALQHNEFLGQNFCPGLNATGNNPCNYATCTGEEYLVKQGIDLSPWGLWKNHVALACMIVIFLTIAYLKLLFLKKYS
The experiment in a line: co-IP; lysates of H460/MX cells compared with H460 (Fig. S1B); Western blot.

In experiment [5] the target is T3, ABCG2 expressed from pcDNA-ABCG2 in HEK293 cells (human) (UniProt Q9UNQ0).
T3 sequence: T2 sequence
The experiment can be described thus: co-IP; lysates of HEK293 cells stably transfected with an ABCG2 expression vector compared with HEK293 (Fig. S1A); Western blot.

Experiment [6] addresses T2, ABCG2 (human (endogenous in MCF-7/MX and H460/MX)). The experiment can be described thus: co-IP; MCF-7/MX (and MCF-7) lysate, 1 mg protein, lysis buffer with 1% Triton X-100, 0.5% deoxycholate, 0.1% SDS, 150 mM NaCl; anti-ABCG2 MXP-21 or anti-SLC1A5 overnight at 4 °C, protein G/A Sepharose; Western blot.

These are yes or no findings as the source states them, for the method shown. In cells and extracts the contact can be indirect. Some entries that bind do so weakly or less than the wild type.

B1: ABCG2 (protein, UniProt Q9UNQ0 1-655)
chain: T2 sequence
B1: the binding entry in experiment [1] and in experiment [2] was “binds” each time.

B2: ABCG2 expressed from pcDNA-ABCG2 in HEK293 cells (protein, UniProt Q9UNQ0 1-655)
chain: T2 sequence
In the case of B2, the binding entry in experiment [3] is given as “binds”.

B3: SLC1A5 (protein, UniProt Q15758 1-541)
chain: T1 sequence
Take B3: the binding entry in experiment [4], in experiment [5] and in experiment [6] was “binds” throughout.
